Experimental data: the supplement of paper PMC10470496
Counter-ions that a name gives are not always drawn. This is one part of the list. Many values rest on one well or one pass, so single values are uncertain.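 The three strains are clinical Candida auris isolates from the CDC resistance isolate bank, from clades III, IV and I, grown in RPMI-1640 at 35°C. Growth is background-corrected OD600 relative to vehicle-only wells on the same plate; a hit meant over 50% inhibition in at least two strains plus a plate-corrected B-score above 0.1.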

What was measured:
Test in all cases: growth relative to vehicle control (OD600 ratio) (fraction); higher = less inhibition
Conditions in all cases: 24 h
C. auris AR-384 = system: C. auris AR-384
C. auris AR-386 = system: C. auris AR-386
C. auris AR-387 = system: C. auris AR-387

Row | Compound | growth (C. auris AR-384; 1 µM) | growth (C. auris AR-384; 10 µM) | growth (C. auris AR-386; 1 µM) | growth (C. auris AR-386; 10 µM) | growth (C. auris AR-387; 1 µM) | growth (C. auris AR-387; 10 µM)
1 | COc1cc2nc(N3CCN(C(=O)C4COc5ccccc5O4)CC3)nc(N)c2cc1OC (stereo unspecified) [Doxazosin Mesylate] | 1.15 | 0.91 | 0.72 | 0.56 | 0.85 | 0.5
2 | COc1ccc2[nH]c([S@@+]([O-])Cc3ncc(C)c(OC)c3C)nc2c1 [NEXIUM (esomeprazole magnesium)] | 0.6 | 1.05 | 1.17 | 0.79 | 0.89 | 0.8
3 | OCCOCCN1CCN(C(c2ccccc2)c2ccc(Cl)cc2)CC1 (stereo unspecified) [Hydroxyzine 2HCl] | 0.94 | 0.79 | 0.77 | 0.85 | 0.72 | 1
4 | CNC[C@H](O)[C@@H](O)[C@H](O)[C@H](O)CO [Meglumine] | 0.83 | 0.74 | 0.67 | 0.59 | 0.76 | 0.52
5 | COc1ccc(Cl)c(Nc2nc3ccccc3nc2NS(=O)(=O)c2cccc(NC(=O)C(C)(C)N)c2)c1 [Pilaralisib (XL147)] | 0.86 | 0.79 | 0.71 | 0.9 | 0.71 | 1.17
6 | CC1CCc2c(N3CCC(O)CC3)c(F)cc3c(=O)c(C(=O)O)cn1c23 (stereo unspecified) [Nadifloxacin] | 1.06 | 1.12 | 1.37 | 1.07 | 1.06 | 0.86
7 | COc1cc([C@@H]2c3cc4c(cc3[C@@H](O[C@@H]3O[C@@H]5CO[C@@H](C)O[C@H]5[C@H](O)[C@H]3O)[C@H]3COC(=O)[C@H]23)OCO4)cc(OC)c1O [Etoposide] | 0.67 | 0.9 | 1.03 | 0.73 | 0.7 | 0.95
8 | CCCCCCCCCCCCCCCC(=O)O[C@@H]1[C@@H](O)[C@@H](O)[C@@H]([C@H](NC(=O)[C@@H]2C[C@@H](CCC)CN2C)[C@H](C)Cl)O[C@@H]1SC [Clindamycin palmitate HCl] | 1.09 | 1.09 | 1.45 | 0.97 | 1.3 | 1.5
9 | CCCCC(=O)N(Cc1ccc(-c2ccccc2-c2nn[nH]n2)cc1)C(C(=O)O)C(C)C.CCOC(=O)C(C)CC(Cc1ccc(-c2ccccc2)cc1)NC(=O)CCC(=O)O (stereo unspecified) [Sacubitril/valsartan (LCZ696)] | 0.85 | 0.91 | 0.81 | 0.83 | 0.96 | 0.97
10 | Cc1cc2c(cc1S(N)(=O)=O)S(=O)(=O)CCC2 [Meticrane] | 1.19 | 1.32 | 1.08 | 1.06 | 1.2 | 1.22
11 | CC(C)(CO)C(O)C(=O)NCCC(=O)O [Calcium D-Panthotenate] | 1.06 | 1.03 | 1.17 | 1.05 | 1.01 | 1.07
12 | CCN1CCN(C(=O)N[C@@H](C(=O)N[C@@H]2C(=O)N3[C@@H]2SC(C)(C)[C@@H]3C(=O)O)c2ccccc2)C(=O)C1=O [Piperacillin Sodium] | 0.87 | 0.81 | 0.83 | 0.69 | 0.68 | 0.72
13 | CO[C@@H]1[C@@H](OC(N)=O)[C@@H](O)[C@H](Oc2ccc3c(O)c(NC(=O)c4ccc(O)c(CC=C(C)C)c4)c(=O)oc3c2C)OC1(C)C [Novobiocin Sodium] | 0.84 | 0.78 | 1.51 | 0.72 | 0.79 | 0.94
14 | CC(S)C(=O)NCC(=O)O (stereo unspecified) [Tiopronin] | 1.11 | 1.07 | 1.21 | 0.96 | 0.81 | 0.79
15 | CCN(CC)C(=O)c1cccc(C)c1 | 0.93 | 0.67 | 0.86 | 0.91 | 1.07 | 0.94
16 | Cc1nc(NC(=O)N2CCC[C@H]2C(N)=O)sc1-c1ccnc(C(C)(C)C(F)(F)F)c1 [Alpelisib (BYL719)] | 0.98 | 1.13 | 0.96 | 0.69 | 0.78 | 0.79
17 | CC(C)[C@H](N)C(=O)OCC(CO)OCn1cnc2c(=O)[nH]c(N)nc21 (stereo partly specified) [Valganciclovir HCl] | 0.9 | 0.84 | 0.79 | 0.88 | 0.85 | 1.08
18 | NC12CC3CC(CC(C3)C1)C2 [Amantadine HCl] | 1.24 | 1.1 | 1.27 | 0.98 | 0.98 | 1.04
19 | CC(=O)N[C@@H](CCC(N)=O)C(=O)O [Aceglutamide] | 0.74 | 0.89 | 0.75 | 0.96 | 0.92 | 0.77
20 | Cc1cc(=O)[nH]c(=S)[nH]1 [Methylthiouracil] | 1.05 | 0.74 | 0.97 | 0.97 | 0.85 | 0.92
21 | CN1CC[C@H](c2c(O)cc(O)c3c(=O)cc(-c4ccccc4Cl)oc23)[C@H](O)C1 [Flavopiridol (Alvocidib)] | 0.78 | 0.42 | 1 | 0.56 | 0.82 | 0.66

Taken from above.
Entry of Cc1cc(=O)[nH]c(=S)[nH]1 [Methylthiouracil] under growth (C. auris AR-387; 10 µM): 0.92
Entry of CC(C)[C@H](N)C(=O)OCC(CO)OCn1cnc2c(=O)[nH]c(N)nc21 (stereo partly specified) [Valganciclovir HCl] under growth (C. auris AR-387; 1 µM): 0.85
